Measurements: paper PMC3271191
These are yes or no findings as the source states them, for the method shown. Binding can be weak; no strength is given.

Biological target: T1, CEH-14 (C. elegans) (UniProt P20271)
T1 sequence: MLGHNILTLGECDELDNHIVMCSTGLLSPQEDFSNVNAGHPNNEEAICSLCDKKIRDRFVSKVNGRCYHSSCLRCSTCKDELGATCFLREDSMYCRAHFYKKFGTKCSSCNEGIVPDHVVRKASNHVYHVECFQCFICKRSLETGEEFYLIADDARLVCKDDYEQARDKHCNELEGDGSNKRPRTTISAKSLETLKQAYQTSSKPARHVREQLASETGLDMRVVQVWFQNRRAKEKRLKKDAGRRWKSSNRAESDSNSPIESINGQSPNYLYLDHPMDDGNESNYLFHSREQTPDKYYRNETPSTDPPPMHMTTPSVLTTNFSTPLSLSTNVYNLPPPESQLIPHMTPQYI
Experiment: two-hybrid; direct assays: Gal4AD-TF prey plasmids transformed into the haploid Gal4DB-TF bait strain (MaV103); beta-galactosidase assay on overlay filter membranes and growth on selective plates plus 20, 40 or 60 mM 3-AT; individual yeast transformant colonies scored

- binding: binds
Substance: AD-CEH-63 from the transcription factor array (lacks the N-terminus of CEH-63) (C. elegans) (domain or fragment)
